Measured values as given in patent publication US5648349A, “PLA2 inhibitors” (Monsanto Company, priority 1995, dated 1997).
At least one structure is not confirmed: it was looked up by name or label, or the drawing left a doubt.

Columns and labels:
[1] = test system: sheep platelet PLA2; assay: Micromolar Calcium-Dependent PLA2 Assay (sheep platelet cytosolic PLA2); type: biochemical; conditions: pH 7.2, 1 μM CaCl2, 1 μM substrate, 10 min at 37° C.
Source text: Specifically, one micromolar calcium-dependent mammalian PLA2 assay was used, i.e., sheep platelet PLA2, and two millimolar calcium-dependent mammalian PLA2 assays were used, i.e., human synovial fluid PLA2 and porcine pancreatic PLA2. The PLA2 enzymes represent different groups of PLA2 enzymes. Myocardial PLA2, platelet PLA2 and secreted PLA2 enzymes (human synovial fluid PLA2 and porcine pancreatic PLA2) have very different calcium requirements, which may be typical of their respective classes.
Micromolar Calcium-Dependent PLA2 Assay
Homogeneous sheep platelet cytosolic PLA2 was prepared as described by Loeb, L. A., and Gross, R. W., J. Biol. Chem., 261, 10467-10470 (1986). The purified calcium-dependent platelet PLA2 was preincubated in 70 mM Tris-Cl (pH 7.2) containing 1 μM CaCl2 and test compound for 5 min. at 25° C. Catalysis was initiated by injection of 1 μM radiolabeled substrate (1-O-(Z)-(1'-hexadecenyl)-2-[9,10^-3 H]-oleoyl-3-phosphorylcholine). After a 10 min. incubation period at 37° C., reaction products were extracted with n-butanol, separated by thin layer chromatography, and quantified by scintillation spectrometry. PLA2 activity was compared in the presence and absence of test compound and the IC50 was determined.
See Zupan, L. A., et al, "Calcium is sufficient but not necessary for activation of sheep platelet cytosolic phospholipase A2 ", FEBS Letters, Vol. 284, No. 1, 27-30 (1991).

[2] = test system: purified calcium-independent canine myocardial PLA2; assay: Calcium-Independent PLA2 Assay (purified canine myocardial cytosolic PLA2, release of radiolabeled oleic acid); type: biochemical; conditions: pH 7.0, 6.4 mM EGTA, 1 μM substrate, 5 min at 37° C., read-out: IC50 Canine Heart PLA2
Procedure: This assay consists of determining the amount of radiolabeled fatty acid which is liberated from the radiolabeled phospholipid substrate by purified calcium-independent canine myocardial PLA2 in the presence of varying concentrations of the inhibitor. The concentration of inhibitor which decreases the activity of the enzyme to 50% of the activity observed in the absence of that inhibitor is determined. This concentration is defined as the IC50.
Calcium-Independent PLA2 Assay
Purified canine myocardial cytosolic PLA2 was isolated from an ATP-agarose eluate as described by Wolf, R. A., and Gross, R. W., J. Biol. Chem., 260, 7295-7303 (1985). The calcium-independent myocardial PLA2 was incubated with selected concentrations (10^-10 to 10^-4 M) of test compound in 168 mM Tris-Cl, 6.4 mM EGTA (a calcium chelator) (pH 7.0) for 5 min. at 25° C. Appropriate controls were performed in the absence of test compound. Catalysis was initiated by injection of 1 μM radiolabeled substrate (1-O-(Z)-(1'-hexadecenyl)-2-[9,10^-3 H]-oleoyl-3-phosphorylcholine). After a 5 min. incubation at 37° C., reaction products were extracted with n-butanol, separated by thin layer chromatography, and quantified by scintillation spectrometry. PLA2 activity was compared in the presence and absence of test compound and the IC50 was determined.

| SMILES | IC50 [1] [nM] | IC50 [2] [nM] |
| --- | --- | --- |
| CCCCCCCCCCC/C=C\c1ccccc1C=C(P(=O)(OCC)OCC)P(=O)(OCC)OCC [Example 15, Tetraethyl [2-[2-(1-Z-tridecenyl)phenyl]ethenylidene]bisphosphonate] | 251 | 1330 |
| CCCCCCCCCCCC#Cc1ccccc1C=C(P(=O)(O)O)P(=O)(O)O [Example 12, Tetrazolium [2-[2-(1-tridecynyl)phenyl]ethenylidene]bisphosphonate] | 7100 | 2800 |
| CCCCCCCCCCCC#Cc1ccccc1/C=C(\C(=O)OC)P(=O)(OCC)OCC [Example 17, Methyl 3-[2-(1-tridecynyl)phenyl]-2-E-(diethoxyphosphinyl)-2-propenoate] | 631 | 1600 |
